From patent US20020102617A1
No constants are given. Whether binding was seen depends on the method and setting. Some entries that bind do so weakly or less than the wild type.

By UniProt entry, the sequences of proteins in these tests, tags left out. Residues count along the entry.
UniProt P19838, residues 1-433: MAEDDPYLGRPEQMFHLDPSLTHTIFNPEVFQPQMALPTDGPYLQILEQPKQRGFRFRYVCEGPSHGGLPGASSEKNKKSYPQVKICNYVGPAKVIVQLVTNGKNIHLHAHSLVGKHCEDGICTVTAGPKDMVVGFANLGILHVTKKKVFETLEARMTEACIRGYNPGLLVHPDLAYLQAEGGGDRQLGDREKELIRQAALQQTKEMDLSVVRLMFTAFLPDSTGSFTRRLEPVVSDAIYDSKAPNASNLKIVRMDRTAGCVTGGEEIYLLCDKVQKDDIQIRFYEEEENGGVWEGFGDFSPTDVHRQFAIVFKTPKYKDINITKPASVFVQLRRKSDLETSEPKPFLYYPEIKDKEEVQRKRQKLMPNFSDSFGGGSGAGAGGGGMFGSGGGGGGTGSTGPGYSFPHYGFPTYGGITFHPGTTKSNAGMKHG
UniProt P25963: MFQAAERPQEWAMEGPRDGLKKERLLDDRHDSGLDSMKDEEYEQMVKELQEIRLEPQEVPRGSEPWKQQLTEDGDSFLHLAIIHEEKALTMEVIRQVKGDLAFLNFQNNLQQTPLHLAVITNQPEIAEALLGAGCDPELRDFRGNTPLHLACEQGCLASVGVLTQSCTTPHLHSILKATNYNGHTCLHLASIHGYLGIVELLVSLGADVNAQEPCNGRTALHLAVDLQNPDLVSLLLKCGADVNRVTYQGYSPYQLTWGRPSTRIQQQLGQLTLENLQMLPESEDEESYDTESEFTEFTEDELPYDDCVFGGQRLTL

Biological target: p50 (of the NFκB complex) (UniProt P19838)
Assay: protein microarray on aldehyde glass slide, 0.1 µg/ml fluorescent probe (FIG. 1B)

Substance: Cy3-conjugated IκBα (from UniProt P25963 1-317)
- binding: binds
